Assay results as given in patent US7880002B2, “Substituted piperazinyl-pyrrolidine compounds useful as chemokine receptor antagonists” (Millennium Pharmaceuticals, Inc., priority 2004, dated 2011).
Some results were stated once for a whole list of compounds, not compound by compound.

Target: T1, CCR1 (Homo sapiens, UniProt P32246)
T1 construct: a monocytic derived cell line that endogenously expresses CCR1; host or cells: THP-1 cells
T1 sequence (P32246 1-355): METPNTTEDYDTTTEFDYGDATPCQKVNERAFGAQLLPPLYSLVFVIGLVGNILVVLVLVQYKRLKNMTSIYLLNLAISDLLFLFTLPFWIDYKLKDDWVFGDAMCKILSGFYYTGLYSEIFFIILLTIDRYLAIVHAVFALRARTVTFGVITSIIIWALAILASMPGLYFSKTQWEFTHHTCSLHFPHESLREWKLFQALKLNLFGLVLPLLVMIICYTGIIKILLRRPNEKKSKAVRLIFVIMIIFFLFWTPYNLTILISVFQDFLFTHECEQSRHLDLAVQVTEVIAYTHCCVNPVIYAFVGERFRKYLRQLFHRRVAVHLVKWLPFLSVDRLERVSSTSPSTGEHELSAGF
Experiment: CCR1 inhibition (THP-1 FLIPR assay / THP-1 whole cell radioligand binding assay; the patent does not say which gave the values)
Format: cell-based
Conditions: threshold list, less than 1 uM; compounds of Table 1; read-out: inhibitory activity

Compound | IC50 [µM]
O=C(c1ccc(Cl)cc1)N1CCN([C@H]2CN(c3ncnc4cc(C(F)(F)F)ccc34)C[C@@H]2O)CC1 (stereo in doubt) [Example 131, 4-[4-(4-chlorobenzoyl)piperazil-1-yl]-1-[7-(trifluoromethyl)quinazolin-4-yl]pyrrolidin-3-ol] | < 1
O=C(c1ccc(Cl)cc1)N1CCN([C@@H]2CN(c3nc(Cl)nc4ccccc34)C[C@H]2O)CC1 (stereo in doubt) [Example 133, 4-[4-(4-chlorobenzoyl)piperazin-1-yl]-1-(2-chloroquinazolin-4-yl)pyrrolidin-3-ol] | < 1
Cc1nc(N2C[C@@H](O)[C@H](N3CCN(C(=O)c4ccc(Cl)cc4)CC3)C2)cc(C(F)(F)F)n1 (stereo in doubt) [Example 135, 4-[4-(4-chlorobenzoyl)piperazin-1-yl]-1-[2-methyl-6-(trifluoromethyl)pyrimidin-4-yl]pyrrolidin-3-ol] | < 1
Cc1nc(N2C[C@@H](O)[C@H](N3CCN(Cc4ccc(Cl)cc4)CC3)C2)cc(C(F)(F)F)n1 (stereo in doubt) [Example 136, 4-[4-(4-chlorobenzyl)piperazin-1-yl]-1-[2-methyl-6-(trifluoromethyl)pyrimidin-4-yl]pyrrolidin-3-ol] | < 1
Cc1nc(N2C[C@H](O)[C@@H](N3CCN(C(=O)c4ccc(Cl)cc4)CC3)C2)c2ccccc2n1 (stereo in doubt) [Example 138, 4-[4-(4-chlorobenzoyl)piperazin-1-yl]-1-(2-methylquinazolin-4-yl)pyrrolidin-3-ol] | < 1
Cc1cc(N2C[C@@H](O)[C@H](N3CCN(C(=O)c4ccc(Cl)cc4)CC3)C2)nc(C(F)(F)F)n1 (stereo in doubt) [Example 146, 4-[4-(4-chlorobenzoyl)piperazin-1-yl]-1-[6-methyl-2-(trifluoromethyl)pyrimidin-4-yl]pyrrolidin-3-ol] | < 1
O=C(c1ccc(Cl)cc1)N1CCN([C@H]2CN(c3nc4ccccc4nc3C(F)(F)F)C[C@@H]2O)CC1 (stereo in doubt) [Example 148, 4-[4-(4-chlorobenzoyl)piperazin-1-yl]-1-[3-(trifluoromethyl)quinoxalin-2-yl]pyrrolidin-3-ol] | < 1
O[C@H]1CN(c2cnc3ccc(Cl)cc3n2)C[C@@H]1N1CCN(Cc2ccc(Cl)cc2)CC1 (stereo in doubt) [Example 153, 4-[4-(4-chlorobenzyl)piperazin-1-yl]-1-(7-chloroquinoxalin-2-yl)pyrrolidin-3-ol] | < 1
O=C(c1ccc(Cl)cc1)N1CCN([C@H]2CN(c3nc4ccccc4nc3N3CCOCC3)C[C@@H]2O)CC1 (stereo in doubt) [Example 154, 4-[4-(4-chlorobenzoyl)piperazin-1-yl]-1-(3-morpholin-4-ylquinoxalin-2-yl)pyrrolidin-3-ol] | < 1
O[C@H]1CN(c2nc3ccccc3nc2N2CCOCC2)C[C@@H]1N1CCN(Cc2ccc(Cl)cc2)CC1 (stereo in doubt) [Example 155, 4-[4-(4-chlorobenzyl)piperazin-1-yl]-1-(3-morpholin-4-ylquinoxalin-2-yl)pyrrolidin-3-ol] | < 1
O=C(c1ccc(Cl)cc1)N1CCN([C@H]2CN(c3cnc4cccc(Cl)c4n3)C[C@@H]2O)CC1 (stereo in doubt) [Example 158, 4-[4-(4-chlorobenzoyl)piperazin-1-yl]-1-(8-chloroquinoxalin-2-yl)pyrrolidin-3-ol] | < 1
O=C(c1ccc(Cl)cc1)N1CCN([C@@H]2CN(c3ncnc4cc(Cl)c(F)cc34)C[C@H]2O)CC1 (stereo in doubt) [Example 161, 4-[4-(4-chlorobenzoyl)piperazin-1-yl]-1-(7-chloro-6-fluoroquinazolin-4-yl)pyrrolidin-3-ol] | < 1
Cc1ccc2ncnc(N3C[C@H](O)[C@@H](N4CCN(C(=O)c5ccc(Cl)cc5)CC4)C3)c2c1 (stereo in doubt) [Example 163, 4-[4-(4-chlorobenzoyl)piperazin-1-yl]-1-(6-methylquinazolin-4-yl)pyrrolidin-3-ol] | < 1
COc1ccc2nc(C(F)(F)F)nc(N3C[C@H](O)[C@@H](N4CCN(C(=O)c5ccc(Cl)cc5)CC4)C3)c2c1 (stereo in doubt) [Example 165, 4-[4-(4-chlorobenzoyl)piperazin-1-yl]-1-[6-methoxy-2-(trifluoromethyl)quinazolin-4-yl]pyrrolidin-3-ol] | < 1
COc1ccc2ncnc(N3C[C@H](O)[C@@H](N4CCN(C(=O)c5ccc(Cl)cc5)CC4)C3)c2c1 (stereo in doubt) [Example 167, 4-[4-(4-chlorobenzoyl)piperazin-1-yl]-1-(6-methoxyquinazolin-4-yl)pyrrolidin-3-ol] | < 1
O=C(c1ccc(Cl)cc1)N1CCN([C@H]2CN(c3nc(C(F)(F)F)nc4cc(F)ccc34)C[C@@H]2O)CC1 (stereo in doubt) [Example 171, 4-[4-(4-chlorobenzoyl)piperazin-1-yl]-1-[7-fluoro-2-(trifluoromethyl)quinazolin-4-yl]pyrrolidin-3-ol] | < 1
O=C(c1ccc(Cl)cc1)N1CCN([C@H]2CN(c3nc(C(F)(F)F)nc4cccc(F)c34)C[C@@H]2O)CC1 (stereo in doubt) [Example 172, 4-[4-(4-chlorobenzoyl)piperazin-1-yl]-1-[5-fluoro-2-(trifluoromethyl)quinazolin-4-yl]pyrrolidin-3-ol] | < 1
O=C(c1ccc(Cl)cc1)N1CCN([C@H]2CN(c3nc(C(F)(F)F)nc4ccc(Cl)cc34)C[C@@H]2O)CC1 (stereo in doubt) [Example 173, 4-[4-(4-chlorobenzoyl)piperazin-1-yl]-1-[6-chloro-2-(trifluoromethyl)quinazolin-4-yl]pyrrolidin-3-ol] | < 1
Cc1ccc2nc(C(F)(F)F)nc(N3C[C@H](O)[C@@H](N4CCN(C(=O)c5ccc(Cl)cc5)CC4)C3)c2c1 (stereo in doubt) [Example 174, 4-[4-(4-chlorobenzoyl)piperazin-1-yl]-1-[6-methyl-2-(trifluoromethyl)quinazolin-4-yl]pyrrolidin-3-ol] | < 1
O=C(c1ccc(Cl)cc1)N1CCN([C@H]2CN(c3nc(C(F)(F)F)nc4cccc(Cl)c34)C[C@@H]2O)CC1 (stereo in doubt) [Example 176, 4-[4-(4-chlorobenzoyl)piperazin-1-yl]-1-[5-chloro-2-(trifluoromethyl)quinazolin-4-yl]pyrrolidin-3-ol] | < 1
O=C(c1ccc(Cl)cc1)N1CCN([C@H]2CN(c3nc(C(F)(F)F)nc4c(F)cccc34)C[C@@H]2O)CC1 (stereo in doubt) [Example 178, 4-[4-(4-chlorobenzoyl)piperazin-1-yl]-1-[8-fluoro-2-(trifluoromethyl)quinazolin-4-yl]pyrrolidin-3-ol] | < 1
O=C(c1ccc(Cl)cc1)N1CCN([C@H]2CN(c3nc(C(F)(F)F)nc4cc(F)c(F)cc34)C[C@@H]2O)CC1 (stereo in doubt) [Example 179, 4-[4-(4-chlorobenzoyl)piperazin-1-yl]-1-[6,7-difluoro-2-(trifluoromethyl)quinazolin-4-yl]pyrrolidin-3-ol] | < 1
COC(=O)c1ccc2nc(C(F)(F)F)nc(N3C[C@@H](O)[C@H](N4CCN(C(=O)c5ccc(Cl)cc5)CC4)C3)c2c1 (stereo in doubt) [Example 180, methyl 4-{3-[4-(4-chlorobenzoyl)piperazin-1-yl]-4-hydroxypyrrolidin-1-yl}-2-(trifluoromethyl)quinazoline-6-carboxylate] | < 1
O=C(O)c1ccc2nc(C(F)(F)F)nc(N3C[C@@H](O)[C@H](N4CCN(C(=O)c5ccc(Cl)cc5)CC4)C3)c2c1 (stereo in doubt) [Example 181, 4-{3-[4-(4-chlorobenzoyl)piperazin-1-yl]-4-hydroxypyrrolidin-1-yl}-2-(trifluoromethyl)quinazoline-6-carboxylic acid] | < 1
CCOc1ccc2nc(C(F)(F)F)nc(N3C[C@H](O)[C@@H](N4CCN(C(=O)c5ccc(Cl)cc5)CC4)C3)c2c1 (stereo in doubt) [Example 184, 4-[4-(4-chlorobenzoyl)piperazin-1-yl]-1-[6-ethoxy-2-(trifluoromethyl)quinazolin-4-yl]pyrrolidin-3-ol] | < 1
Nc1ccc2nc(C(F)(F)F)nc(N3C[C@H](O)[C@@H](N4CCN(C(=O)c5ccc(Cl)cc5)CC4)C3)c2c1 (stereo in doubt) [Example 186, 1-[6-amino-2-(trifluoromethyl)quinazolin-4-yl]-4-[4-(4-chlorobenzoyl)piperazin-1-yl]pyrrolidin-3-ol] | < 1
CN(C)c1ccc2nc(C(F)(F)F)nc(N3C[C@H](O)[C@@H](N4CCN(C(=O)c5ccc(Cl)cc5)CC4)C3)c2c1 (stereo in doubt) [Example 187, 4-[4-(4-chlorobenzoyl)piperazin-1-yl]-1-[6-(dimethylamino)-2-(trifluoromethyl)quinazolin-4-yl]pyrrolidin-3-ol] | < 1
O=C(c1ccc(Cl)cc1)N1CCN([C@H]2CN(c3nc(C(F)(F)F)nc4ccc([N+](=O)[O-])cc34)C[C@@H]2O)CC1 (stereo in doubt) [Example 188, 4-[4-(4-chlorobenzoyl)piperazin-1-yl]-1-[6-nitro-2-(trifluoromethyl)quinazolin-4-yl]pyrrolidin-3-ol] | < 1
COC(=O)Nc1ccc2nc(C(F)(F)F)nc(N3C[C@H](O)[C@@H](N4CCN(C(=O)c5ccc(Cl)cc5)CC4)C3)c2c1 (stereo in doubt) [Example 190, methyl [4-{3-[4-(4-chlorobenzoyl)piperazin-1-yl]-4-hydroxypyrrolidin-1-yl}-2-(trifluoromethyl)quinazolin-6-yl]carbamate] | < 1
